Assay results reported in the supplement of paper PMC12823440, “Inhibitors supercharge kinase turnover through native proteolytic circuits” (Nature, 2025).
The list shows a part of the results. The calls rarely recur for the same compound in another form.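 Kinases were expressed as nanoluciferase fusions in K562 cells and luminescence was read every 4 h between 2 and 18 h as percent of control, DMSO set to 100% and a positive control to 0%. A time point counts as decreased when the signal drops significantly (2 sigma). The hit call is the authors' own, does not follow from the count of time points alone, and its rule is not shown.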

By UniProt entry, the sequences of proteins in these tests, tags left out. Where a name states a change or a piece, a line headed by the entry shows the natural chain unless it says otherwise.
UniProt P00519, whole entry: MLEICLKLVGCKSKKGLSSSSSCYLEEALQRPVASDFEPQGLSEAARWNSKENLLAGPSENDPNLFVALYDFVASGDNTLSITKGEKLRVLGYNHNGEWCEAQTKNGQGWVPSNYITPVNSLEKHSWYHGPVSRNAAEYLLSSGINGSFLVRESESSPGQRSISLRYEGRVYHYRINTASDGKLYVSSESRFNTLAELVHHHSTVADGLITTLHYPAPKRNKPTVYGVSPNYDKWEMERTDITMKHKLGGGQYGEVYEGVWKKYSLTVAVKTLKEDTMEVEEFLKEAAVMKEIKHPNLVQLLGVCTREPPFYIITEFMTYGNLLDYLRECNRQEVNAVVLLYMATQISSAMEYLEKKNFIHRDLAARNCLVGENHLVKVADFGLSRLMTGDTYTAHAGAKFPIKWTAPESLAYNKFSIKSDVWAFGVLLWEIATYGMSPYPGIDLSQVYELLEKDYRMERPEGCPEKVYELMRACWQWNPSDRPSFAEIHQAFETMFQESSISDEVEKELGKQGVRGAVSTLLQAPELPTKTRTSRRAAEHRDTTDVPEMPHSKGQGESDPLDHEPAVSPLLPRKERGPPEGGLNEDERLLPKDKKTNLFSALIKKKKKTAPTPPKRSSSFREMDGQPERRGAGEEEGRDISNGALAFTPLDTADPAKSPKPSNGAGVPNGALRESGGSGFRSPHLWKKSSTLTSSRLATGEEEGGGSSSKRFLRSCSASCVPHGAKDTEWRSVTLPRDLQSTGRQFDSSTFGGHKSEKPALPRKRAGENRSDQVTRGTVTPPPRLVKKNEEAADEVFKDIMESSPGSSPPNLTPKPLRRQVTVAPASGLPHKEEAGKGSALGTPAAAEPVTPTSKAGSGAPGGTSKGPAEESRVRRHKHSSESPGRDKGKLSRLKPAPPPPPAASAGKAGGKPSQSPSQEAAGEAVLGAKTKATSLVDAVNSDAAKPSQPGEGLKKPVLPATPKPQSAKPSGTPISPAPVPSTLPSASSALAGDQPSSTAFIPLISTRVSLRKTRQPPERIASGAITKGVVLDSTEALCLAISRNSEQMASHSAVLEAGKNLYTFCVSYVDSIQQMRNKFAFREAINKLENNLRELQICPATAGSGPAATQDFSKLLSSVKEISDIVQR
UniProt Q9UM73: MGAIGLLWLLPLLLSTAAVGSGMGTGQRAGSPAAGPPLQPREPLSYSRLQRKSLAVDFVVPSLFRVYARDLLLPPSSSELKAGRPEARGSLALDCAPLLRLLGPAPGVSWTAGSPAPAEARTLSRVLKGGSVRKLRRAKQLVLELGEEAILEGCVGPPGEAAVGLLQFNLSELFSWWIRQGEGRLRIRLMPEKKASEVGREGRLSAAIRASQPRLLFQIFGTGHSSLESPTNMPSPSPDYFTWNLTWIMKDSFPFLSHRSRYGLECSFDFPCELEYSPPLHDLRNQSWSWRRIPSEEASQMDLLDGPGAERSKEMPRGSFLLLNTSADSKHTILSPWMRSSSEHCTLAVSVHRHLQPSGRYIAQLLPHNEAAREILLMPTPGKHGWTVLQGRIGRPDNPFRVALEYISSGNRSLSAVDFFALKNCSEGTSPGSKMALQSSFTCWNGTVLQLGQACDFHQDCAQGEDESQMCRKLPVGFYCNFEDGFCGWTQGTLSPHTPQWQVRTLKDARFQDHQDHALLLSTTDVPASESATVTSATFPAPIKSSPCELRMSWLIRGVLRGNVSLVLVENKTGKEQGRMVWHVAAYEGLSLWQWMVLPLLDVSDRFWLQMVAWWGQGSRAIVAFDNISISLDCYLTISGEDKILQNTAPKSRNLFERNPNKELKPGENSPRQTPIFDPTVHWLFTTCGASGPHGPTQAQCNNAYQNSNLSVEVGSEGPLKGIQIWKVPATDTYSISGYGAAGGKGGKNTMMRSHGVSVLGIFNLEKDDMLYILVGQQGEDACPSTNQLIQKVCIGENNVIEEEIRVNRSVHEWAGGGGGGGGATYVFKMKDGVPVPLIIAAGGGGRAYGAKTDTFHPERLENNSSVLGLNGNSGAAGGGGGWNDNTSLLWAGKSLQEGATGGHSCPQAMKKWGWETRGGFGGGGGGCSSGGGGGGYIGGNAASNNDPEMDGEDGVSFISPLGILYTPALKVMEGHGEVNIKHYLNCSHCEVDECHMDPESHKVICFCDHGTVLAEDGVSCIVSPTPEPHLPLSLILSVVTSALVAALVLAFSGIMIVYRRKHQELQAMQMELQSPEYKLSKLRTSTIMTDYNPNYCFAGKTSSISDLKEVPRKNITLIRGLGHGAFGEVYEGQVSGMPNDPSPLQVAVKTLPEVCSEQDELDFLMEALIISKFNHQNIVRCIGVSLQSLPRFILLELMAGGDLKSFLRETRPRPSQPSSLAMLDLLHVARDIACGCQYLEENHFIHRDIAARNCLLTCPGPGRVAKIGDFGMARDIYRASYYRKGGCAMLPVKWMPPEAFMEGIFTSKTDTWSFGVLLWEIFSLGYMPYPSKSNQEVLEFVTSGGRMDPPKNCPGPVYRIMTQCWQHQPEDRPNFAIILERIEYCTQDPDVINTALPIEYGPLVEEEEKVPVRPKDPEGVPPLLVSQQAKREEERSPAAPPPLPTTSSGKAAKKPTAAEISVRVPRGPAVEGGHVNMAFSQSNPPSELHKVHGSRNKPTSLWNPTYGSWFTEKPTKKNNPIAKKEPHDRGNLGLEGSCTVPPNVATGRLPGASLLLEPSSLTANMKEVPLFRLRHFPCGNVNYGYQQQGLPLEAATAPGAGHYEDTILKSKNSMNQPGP
UniProt Q96GD4, whole entry: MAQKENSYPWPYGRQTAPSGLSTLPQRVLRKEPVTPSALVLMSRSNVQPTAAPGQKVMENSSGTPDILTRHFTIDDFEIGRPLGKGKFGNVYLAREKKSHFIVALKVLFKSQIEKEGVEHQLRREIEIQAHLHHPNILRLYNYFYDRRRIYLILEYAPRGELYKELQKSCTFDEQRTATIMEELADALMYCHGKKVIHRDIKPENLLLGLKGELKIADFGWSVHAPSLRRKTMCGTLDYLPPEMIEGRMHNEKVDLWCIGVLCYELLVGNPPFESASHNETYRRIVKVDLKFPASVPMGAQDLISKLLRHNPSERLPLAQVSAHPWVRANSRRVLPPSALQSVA
UniProt P51451: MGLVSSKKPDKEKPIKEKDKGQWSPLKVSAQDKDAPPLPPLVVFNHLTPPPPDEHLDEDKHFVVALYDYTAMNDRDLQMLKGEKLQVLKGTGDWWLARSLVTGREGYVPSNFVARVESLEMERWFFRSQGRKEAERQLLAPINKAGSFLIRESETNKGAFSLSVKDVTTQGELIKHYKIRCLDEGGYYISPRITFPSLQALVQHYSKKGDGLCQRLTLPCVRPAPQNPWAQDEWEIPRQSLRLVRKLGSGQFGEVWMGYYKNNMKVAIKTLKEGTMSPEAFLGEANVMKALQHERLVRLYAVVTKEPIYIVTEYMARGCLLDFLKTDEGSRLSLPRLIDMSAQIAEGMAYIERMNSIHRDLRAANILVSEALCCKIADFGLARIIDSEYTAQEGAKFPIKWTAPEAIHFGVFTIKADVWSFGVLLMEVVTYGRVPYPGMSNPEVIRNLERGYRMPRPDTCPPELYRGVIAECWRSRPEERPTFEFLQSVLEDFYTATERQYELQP
UniProt P51813: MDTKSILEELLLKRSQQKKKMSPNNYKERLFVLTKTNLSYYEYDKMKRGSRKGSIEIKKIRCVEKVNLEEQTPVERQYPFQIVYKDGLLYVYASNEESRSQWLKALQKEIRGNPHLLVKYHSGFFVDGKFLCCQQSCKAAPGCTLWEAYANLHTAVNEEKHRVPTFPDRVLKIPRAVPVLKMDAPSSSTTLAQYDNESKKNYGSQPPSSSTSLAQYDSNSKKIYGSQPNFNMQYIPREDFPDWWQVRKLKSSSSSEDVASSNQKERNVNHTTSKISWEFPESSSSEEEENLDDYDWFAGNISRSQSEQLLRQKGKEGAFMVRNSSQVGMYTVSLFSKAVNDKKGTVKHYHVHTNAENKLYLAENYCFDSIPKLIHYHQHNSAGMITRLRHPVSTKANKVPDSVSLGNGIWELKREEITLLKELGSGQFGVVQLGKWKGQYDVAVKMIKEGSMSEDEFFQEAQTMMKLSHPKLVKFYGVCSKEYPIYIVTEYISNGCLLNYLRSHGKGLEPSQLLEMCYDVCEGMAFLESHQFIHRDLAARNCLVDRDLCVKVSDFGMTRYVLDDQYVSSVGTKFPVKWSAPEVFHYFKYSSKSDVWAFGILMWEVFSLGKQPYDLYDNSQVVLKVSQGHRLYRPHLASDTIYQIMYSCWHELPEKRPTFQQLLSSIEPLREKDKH
UniProt P15056, whole entry, looked up: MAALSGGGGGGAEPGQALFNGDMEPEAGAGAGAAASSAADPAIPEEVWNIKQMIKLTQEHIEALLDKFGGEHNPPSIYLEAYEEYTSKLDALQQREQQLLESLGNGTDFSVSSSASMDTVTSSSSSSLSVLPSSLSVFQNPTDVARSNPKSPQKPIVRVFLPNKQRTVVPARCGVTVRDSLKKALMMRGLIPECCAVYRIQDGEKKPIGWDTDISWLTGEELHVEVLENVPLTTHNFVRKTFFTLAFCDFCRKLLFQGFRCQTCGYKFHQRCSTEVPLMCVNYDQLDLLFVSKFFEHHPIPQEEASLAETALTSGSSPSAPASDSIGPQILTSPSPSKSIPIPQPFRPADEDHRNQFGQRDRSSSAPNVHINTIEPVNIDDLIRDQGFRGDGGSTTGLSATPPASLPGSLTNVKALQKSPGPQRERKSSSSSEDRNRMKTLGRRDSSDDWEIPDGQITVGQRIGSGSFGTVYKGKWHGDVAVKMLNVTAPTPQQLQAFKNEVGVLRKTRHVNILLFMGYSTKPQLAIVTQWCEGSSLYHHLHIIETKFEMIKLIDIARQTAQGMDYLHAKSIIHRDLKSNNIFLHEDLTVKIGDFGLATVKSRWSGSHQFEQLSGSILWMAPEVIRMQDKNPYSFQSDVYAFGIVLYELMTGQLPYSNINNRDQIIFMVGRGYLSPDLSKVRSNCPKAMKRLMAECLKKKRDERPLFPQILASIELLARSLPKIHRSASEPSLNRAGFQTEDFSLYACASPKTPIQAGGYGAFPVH
UniProt P31749: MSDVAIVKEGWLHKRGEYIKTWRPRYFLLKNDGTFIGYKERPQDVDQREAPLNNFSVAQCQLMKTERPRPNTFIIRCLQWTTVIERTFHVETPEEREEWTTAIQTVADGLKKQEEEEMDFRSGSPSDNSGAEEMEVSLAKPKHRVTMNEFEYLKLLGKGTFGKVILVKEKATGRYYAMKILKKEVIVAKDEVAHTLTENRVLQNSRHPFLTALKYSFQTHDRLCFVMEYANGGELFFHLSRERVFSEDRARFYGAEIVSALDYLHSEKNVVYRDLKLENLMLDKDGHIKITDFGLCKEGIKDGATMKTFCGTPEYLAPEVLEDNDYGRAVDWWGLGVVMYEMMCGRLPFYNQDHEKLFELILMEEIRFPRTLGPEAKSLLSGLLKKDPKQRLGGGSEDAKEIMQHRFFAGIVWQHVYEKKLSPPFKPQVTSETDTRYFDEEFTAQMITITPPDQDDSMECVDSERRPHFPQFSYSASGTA
UniProt P10398: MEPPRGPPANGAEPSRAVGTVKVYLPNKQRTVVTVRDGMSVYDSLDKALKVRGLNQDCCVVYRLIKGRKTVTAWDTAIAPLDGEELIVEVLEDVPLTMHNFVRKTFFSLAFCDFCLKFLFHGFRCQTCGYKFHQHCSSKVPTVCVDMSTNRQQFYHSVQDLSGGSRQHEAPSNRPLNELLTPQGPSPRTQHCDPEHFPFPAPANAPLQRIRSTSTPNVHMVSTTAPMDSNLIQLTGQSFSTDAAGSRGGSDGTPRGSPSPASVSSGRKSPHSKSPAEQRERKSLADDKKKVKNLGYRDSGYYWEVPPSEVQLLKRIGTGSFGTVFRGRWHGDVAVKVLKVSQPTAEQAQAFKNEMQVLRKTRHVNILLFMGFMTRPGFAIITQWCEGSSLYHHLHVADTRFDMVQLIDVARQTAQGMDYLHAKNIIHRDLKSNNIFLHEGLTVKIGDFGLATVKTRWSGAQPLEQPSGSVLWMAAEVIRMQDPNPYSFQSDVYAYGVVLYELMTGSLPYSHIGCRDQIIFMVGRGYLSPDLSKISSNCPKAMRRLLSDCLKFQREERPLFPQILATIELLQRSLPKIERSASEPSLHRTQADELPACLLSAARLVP
UniProt Q9UQB9: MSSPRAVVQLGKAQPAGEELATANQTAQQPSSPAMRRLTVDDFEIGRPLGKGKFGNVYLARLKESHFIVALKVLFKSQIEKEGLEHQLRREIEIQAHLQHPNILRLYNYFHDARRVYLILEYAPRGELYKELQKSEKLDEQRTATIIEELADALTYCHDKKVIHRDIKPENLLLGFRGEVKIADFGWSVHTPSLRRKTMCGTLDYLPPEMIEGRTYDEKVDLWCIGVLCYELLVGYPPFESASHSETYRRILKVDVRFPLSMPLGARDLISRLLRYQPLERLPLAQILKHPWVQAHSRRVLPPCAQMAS

Columns and labels:
Experiment in all cases: kinase-Nluc reporter destabilization hit call (1 = scored as downregulated) (binary); higher = compound decreases kinase abundance
Settings in all cases: K562, 2-18 h
ABL1 = ABL1 (UniProt P00519)
ALK = ALK (UniProt Q9UM73)
AURKA = AURKA (UniProt O14965)
AURKB = AURKB (UniProt Q96GD4)
BLK = BLK (UniProt P51451)
BMX = BMX (UniProt P51813)
BRAF = BRAF (UniProt P15056)
AKT1 = AKT1 (UniProt P31749)
ARAF = ARAF (UniProt P10398)
AURKC = AURKC (UniProt Q9UQB9)

Measured: kinase-Nluc reporter destabilization hit call

N#CC(=Cc1cc(Cl)cc(Cl)c1)c1cccnc1
inactive: ABL1; 10 µM 0 | ALK; 10 µM 0 | AURKA; 10 µM 0 | AURKB; 10 µM 0 | BLK; 10 µM 0 | BMX; 10 µM 0 | BRAF; 10 µM 0

C=CC(=O)N(C)CCOc1c(N)ncnc1-c1cc(F)cc(NC(=O)c2ccc(C3CC3)cc2F)c1C [Remibrutinib]
inactive: ABL1; 10 µM 0 | AKT1; 10 µM 0 | ALK; 10 µM 0 | ARAF; 10 µM 0 | AURKA; 10 µM 0 | AURKB; 10 µM 0 | AURKC; 10 µM 0 | BLK; 10 µM 0 | BRAF; 10 µM 0

O=C(Nc1cccc(Nc2nccc(Nc3cccc(C(F)(F)F)c3)n2)c1)C1CC1 [Aurora kinase inhibitor-3]
inactive: ABL1; 2.5 µM 0 | AKT1; 2.5 µM 0 | ALK; 2.5 µM 0 | ARAF; 2.5 µM 0 | AURKB; 2.5 µM 0 | AURKC; 2.5 µM 0 | BLK; 2.5 µM 0 | BMX; 2.5 µM 0 | BRAF; 2.5 µM 0

C[C@@]1(C(=O)Nc2ccc(F)nc2)CCCN1c1nc(Nc2cc(C3CC3)n[nH]2)c2cccn2n1
inactive: ABL1; 10 µM 0 | AKT1; 10 µM 0 | ARAF; 10 µM 0 | AURKA; 10 µM 0 | AURKB; 10 µM 0 | AURKC; 10 µM 0 | BLK; 10 µM 0 | BMX; 10 µM 0 | BRAF; 10 µM 0

CC#CC(=O)N1CCC[C@H]1c1nc(-c2ccc(C(=O)Nc3ccccn3)cc2)c2c(N)nccn12 [Acalabrutinib]
inactive: ABL1; 10 µM 0 | AKT1; 10 µM 0 | ALK; 10 µM 0 | ARAF; 10 µM 0 | AURKA; 10 µM 0 | AURKB; 10 µM 0 | AURKC; 10 µM 0 | BLK; 10 µM 0 | BRAF; 10 µM 0

Already shown: 2 of the compounds above.
C[C@@]1(C(=O)Nc2ccc(F)nc2)CCCN1c1nc(Nc2cc(C3CC3)n[nH]2)c2cccn2n1
inactive: ABL1; 10 µM 0 | AKT1; 10 µM 0 | ARAF; 10 µM 0 | AURKA; 10 µM 0 | AURKB; 10 µM 0 | AURKC; 10 µM 0 | BLK; 10 µM 0 | BMX; 10 µM 0 | BRAF; 10 µM 0

CC#CC(=O)N1CCC[C@H]1c1nc(-c2ccc(C(=O)Nc3ccccn3)cc2)c2c(N)nccn12 [Acalabrutinib]
inactive: ABL1; 10 µM 0 | AKT1; 10 µM 0 | ALK; 10 µM 0 | ARAF; 10 µM 0 | AURKA; 10 µM 0 | AURKB; 10 µM 0 | AURKC; 10 µM 0 | BLK; 10 µM 0 | BRAF; 10 µM 0

Next part.

C=CC(=O)N1C[C@@H](Nc2ncnc3[nH]ccc23)CC[C@H]1C [(2R,5S)-Ritlecitinib]
inactive: ABL1; 10 µM 0 | AKT1; 10 µM 0 | ALK; 10 µM 0 | ARAF; 10 µM 0 | AURKA; 10 µM 0 | AURKB; 10 µM 0 | AURKC; 10 µM 0 | BLK; 10 µM 0 | BRAF; 10 µM 0

CC[C@@H]1C(=O)N(C)c2cnc(Nc3ccc(C(=O)NC4CCN(C)CC4)cc3OC)nc2N1C1CCCC1
inactive: ABL1; 10 µM 0 | AKT1; 10 µM 0 | ALK; 10 µM 0 | ARAF; 10 µM 0 | AURKA; 10 µM 0 | AURKB; 10 µM 0 | AURKC; 10 µM 0 | BMX; 10 µM 0 | BRAF; 10 µM 0

NCCNc1ncc(C(N)=O)c(Nc2cccc(C(F)(F)F)c2)n1 [Syk Inhibitor II]
inactive: ABL1; 10 µM 0 | AKT1; 10 µM 0 | ALK; 10 µM 0 | ARAF; 10 µM 0 | AURKA; 10 µM 0 | AURKB; 10 µM 0 | BLK; 10 µM 0 | BMX; 10 µM 0 | BRAF; 10 µM 0

COc1nccc(-c2c(-c3ccc(F)cc3)ncn2C2CCNCC2)n1
inactive: ABL1; 10 µM 0 | AKT1; 10 µM 0 | ALK; 10 µM 0 | ARAF; 10 µM 0 | AURKA; 10 µM 0 | AURKB; 10 µM 0 | AURKC; 10 µM 0 | BMX; 10 µM 0 | BRAF; 10 µM 0

CCOc1nc(NC(=O)Cc2cc(OC)ccc2OC)cc(N)c1C#N [JNK Inhibitor VIII]
inactive: ABL1; 10 µM 0 | AKT1; 10 µM 0 | ALK; 10 µM 0 | ARAF; 10 µM 0 | AURKA; 10 µM 0 | AURKB; 10 µM 0 | AURKC; 10 µM 0 | BMX; 10 µM 0 | BRAF; 10 µM 0

CCCCCC1CC1CC1CC1CCCCCCCC(=O)OC (stereo unspecified)
inactive: ABL1; 10 µM 0 | ALK; 10 µM 0 | ARAF; 10 µM 0 | AURKB; 10 µM 0 | AURKC; 10 µM 0 | BLK; 10 µM 0 | BMX; 10 µM 0 | BRAF; 10 µM 0

NC1(C(=O)N[C@@H](CCO)c2ccc(Cl)cc2)CCN(c2nc[nH]c3nccc2-3)CC1 [Capivasertib]
inactive: ABL1; 10 µM 0 | ALK; 10 µM 0 | ARAF; 10 µM 0 | AURKA; 10 µM 0 | AURKB; 10 µM 0 | AURKC; 10 µM 0 | BLK; 10 µM 0 | BMX; 10 µM 0 | BRAF; 10 µM 0

CCCOc1ccc(C=C2SC(=O)NC2=O)cc1
inactive: ABL1; 10 µM 0 | AKT1; 10 µM 0 | ALK; 10 µM 0 | ARAF; 10 µM 0 | AURKA; 10 µM 0 | AURKB; 10 µM 0 | AURKC; 10 µM 0 | BLK; 10 µM 0 | BRAF; 10 µM 0

C[C@H]1Oc2cc(cnc2N)-c2c(nn(C)c2C#N)CN(C)C(=O)c2ccc(F)cc21 [Lorlatinib]
inactive: ABL1; 10 µM 0 | AKT1; 10 µM 0 | ARAF; 10 µM 0 | AURKA; 10 µM 0 | AURKB; 10 µM 0 | AURKC; 10 µM 0 | BLK; 10 µM 0 | BMX; 10 µM 0 | BRAF; 10 µM 0

Cc1ccc(O)cc1Nc1ccnc(Nc2cccc(C(N)=O)c2)n1 [Lck inhibitor 2]
inactive: ABL1; 10 µM 0 | AKT1; 10 µM 0 | ALK; 10 µM 0 | ARAF; 10 µM 0 | AURKA; 10 µM 0 | AURKB; 10 µM 0 | AURKC; 10 µM 0 | BLK; 10 µM 0 | BRAF; 10 µM 0

Cc1cc(C)n2c1C=C1C=CC(CCC(=O)NCCN3CCN(C/C=C/C(=O)N4CCCC(n5nc(-c6ccc(Oc7ccccc7)cc6)c6c(N)ncnc65)C4)CC3)=[N+]1[B-]2(F)F (stereo unspecified)
inactive: ABL1; 2.5 µM 0 | AKT1; 2.5 µM 0 | ALK; 2.5 µM 0 | ARAF; 2.5 µM 0 | AURKA; 2.5 µM 0 | AURKB; 2.5 µM 0 | AURKC; 2.5 µM 0 | BMX; 2.5 µM 0 | BRAF; 2.5 µM 0
